In article PMC7819943, “Rice protein-binding microarrays: a tool to detect cis-acting elements near promoter regions in rice”:
Some of the results follow.

Protein sequences, listed by entry. Tags and fused reporters are not part of them.
UniProt Q0JBA9, entry or part of it: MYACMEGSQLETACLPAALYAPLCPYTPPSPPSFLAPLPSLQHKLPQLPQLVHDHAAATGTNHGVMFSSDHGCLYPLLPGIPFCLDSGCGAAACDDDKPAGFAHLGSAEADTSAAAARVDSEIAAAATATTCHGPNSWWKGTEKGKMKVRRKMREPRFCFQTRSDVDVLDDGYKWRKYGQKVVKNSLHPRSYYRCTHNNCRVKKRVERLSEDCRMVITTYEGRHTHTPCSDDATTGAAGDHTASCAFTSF

What follows are sequences tested against OsWRKY34 (Oryza sativa, UniProt Q0JBA9 1-250) (assay: protein-binding microarray (RPBM); PBS, 2% BSA, 51.3 ng/ul salmon testes DNA, 50 uM zinc acetate, 200 nM TF, 25 C, 1 h; high values mean tight binding). Conditions: protein: recombinant; tags: N-terminal polyhistidine and DsRed monomer fusion (pET32a); label: CyDye5-dUTP incorporated in the synthesized complementary strand; 3' TTTTT single-stranded linker to array surface; dsDNA, one strand shown.
In short: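 Transcription factors, each fused N-terminally to a polyhistidine tag and DsRed, were expressed in E. coli BL21-CodonPlus and purified on Ni–NTA. A custom Agilent array was made double-stranded by primer extension with Cy5-dUTP and blocked with 2% BSA. It was incubated with 200 nM protein in PBS, 2% BSA, salmon testes DNA and 50 µM zinc acetate at 25 °C for 1 h, then washed. The binding signal is per-feature fluorescence intensity (arbitrary units) read on an Axon 4000B scanner.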

| Sequence | binding signal |
| --- | --- |
| TTAATTTGTTTTCACGTATGGTTGTGTTGCCCGCTTGGAACGGAGTCACCTAGTGCAG | 9500 fluorescence intensity (a.u.) |
| GGTTTGAAATAGATTTTGTTTGGTTGGTGGTATAGATAGTCGGAGTCACCTAGTGCAG | 10200 fluorescence intensity (a.u.) |
| GAAGGGGCGCGTTTGTGTTGTTTGGTATGCGATGGACAAGCGGAGTCACCTAGTGCAG | 9560 fluorescence intensity (a.u.) |
| TTTGTCTCCTGTTTCCCTGATGTCGTACTACGTAGATCCTCGGAGTCACCTAGTGCAG | 8640 fluorescence intensity (a.u.) |
| TACACTCCACCGGCCGCTCGCTTGCCGCCGCTCCGCTCCGCGGAGTCACCTAGTGCAG | 11500 fluorescence intensity (a.u.) |
| GCTATCCATATTTAGTTTTCTTCTTCTTCTTCTTCTTCTTCGGAGTCACCTAGTGCAG | 10600 fluorescence intensity (a.u.) |
| CCCTTGGCGAACACCGGCACTTTCACGCACACCTCGTGAACGGAGTCACCTAGTGCAG | 8180 fluorescence intensity (a.u.) |
| ACTATTGACCACCATTAATTATACATAACCACTTTAGTATCGGAGTCACCTAGTGCAG | 8180 fluorescence intensity (a.u.) |
| GAGGACATGCATGTGCAAGGGGAGCAGGTGGGGTAAAATGCGGAGTCACCTAGTGCAG | 8930 fluorescence intensity (a.u.) |
| AAATAAATCTCAGTTCTCTATTGCATGGTTTCTGGTACTCCGGAGTCACCTAGTGCAG | 9830 fluorescence intensity (a.u.) |
| ACAACCTGGCCCCACACCCAAACCCGGGCCCACGTGTCATCGGAGTCACCTAGTGCAG | 9100 fluorescence intensity (a.u.) |
| ATACTTCTATATCATTTTTTTTTGCGGGGTACTTCTATATCGGAGTCACCTAGTGCAG | 12600 fluorescence intensity (a.u.) |
| GTTTATTTCAGCTCTCTTTGTTGTGGGGAAATAGCACCAACGGAGTCACCTAGTGCAG | 8700 fluorescence intensity (a.u.) |
| GTTGGTTTCTCGCCCTCCGTTTGGGTAGTAGCTGATATACCGGAGTCACCTAGTGCAG | 9750 fluorescence intensity (a.u.) |
| CACGTTATCATTTATTTTGTATATATACTGAGTTACATCTCGGAGTCACCTAGTGCAG | 10500 fluorescence intensity (a.u.) |
| TTCCGTTTCACCACCACCGTCTCGGATCAAACCGGCCAACCGGAGTCACCTAGTGCAG | 10400 fluorescence intensity (a.u.) |
| GCCATCACCCAATATATGTTACTCCATTTTTTTTCCTCGTCGGAGTCACCTAGTGCAG | 10800 fluorescence intensity (a.u.) |
| GCAATGTCTGAGTACTTATCTAGCTGGTCACAAAACTAATCGGAGTCACCTAGTGCAG | 8580 fluorescence intensity (a.u.) |
| CCTTGACCGTTCCCAGAAAGGTTGACCGTTGTCCGTCACTCGGAGTCACCTAGTGCAG | 9240 fluorescence intensity (a.u.) |
| TCGACCTCGCCCTCGACACGCTCGCCGCCGCGCGCTCCTTCGGAGTCACCTAGTGCAG | 9430 fluorescence intensity (a.u.) |
| AACCCTTAGTCTGTATATCCAACAGCTCATATCAAGGTTTCGGAGTCACCTAGTGCAG | 9070 fluorescence intensity (a.u.) |

| Sequence | binding signal |
| --- | --- |
| CCTGCAGAATTATTGCAGTGTGTGTGCCAGTTCTGTTAATCGGAGTCACCTAGTGCAG | 8980 fluorescence intensity (a.u.) |
| ATCATGTAATTTTTTCTTGTTCTATCAATATTTTTCACCTCGGAGTCACCTAGTGCAG | 8230 fluorescence intensity (a.u.) |
| AGAGCCGCAACGGGCCAGCACATGACCCATCTGTCACCGCCGGAGTCACCTAGTGCAG | 8360 fluorescence intensity (a.u.) |
| CTCCGCTCCGCGCCTCGCCTCGCCGCCTCGGCATCCGCGCCGGAGTCACCTAGTGCAG | 10100 fluorescence intensity (a.u.) |
| AAATATATAGAGTTTACCCTGTTTTTAATTATTATTTTCTCGGAGTCACCTAGTGCAG | 8700 fluorescence intensity (a.u.) |
| GGGAATGCCCCTAATTCAGGTCACTGTTGCCCTCTGCAGTCGGAGTCACCTAGTGCAG | 8530 fluorescence intensity (a.u.) |
| TAGTTCTAAAACATACCATATCTGTATTACTCTCCATTCCCGGAGTCACCTAGTGCAG | 8610 fluorescence intensity (a.u.) |
| TCTCTTTAAGAGTTTGTCACTCTTGCTCGCGGTGTTTAACCGGAGTCACCTAGTGCAG | 9280 fluorescence intensity (a.u.) |
| CGCCTCGCATCACCCCTAGCCCAAGCCAACCACCCTACACCGGAGTCACCTAGTGCAG | 8630 fluorescence intensity (a.u.) |
| AGCGAGCGGTATCACTTGCACCAGCTTATCCATCCTCATCCGGAGTCACCTAGTGCAG | 8550 fluorescence intensity (a.u.) |
| ATAAGACGAATGGTCAAACATGTGCTAAAAAGTCAACGGTCGGAGTCACCTAGTGCAG | 12900 fluorescence intensity (a.u.) |
| CTGCCCACTGCCTTTTGAGGGGTGGGGCTGCCCACCTTGACGGAGTCACCTAGTGCAG | 8640 fluorescence intensity (a.u.) |
| TTTGTTGTGACGAAATGTCTTAATCACATGGATGGCGGGGCGGAGTCACCTAGTGCAG | 9660 fluorescence intensity (a.u.) |
| ACCATATGTCCATTTCCCTAACACGTCTCCTATTTCACTGCGGAGTCACCTAGTGCAG | 9030 fluorescence intensity (a.u.) |
| ATAAATTAAGTACCAGCCTAGCCATTTGTTTTGGTTGTTTCGGAGTCACCTAGTGCAG | 8230 fluorescence intensity (a.u.) |
| GCAACACCTTTCCTTGCAACCAAAGCCAACCTTCTAGCTACGGAGTCACCTAGTGCAG | 8780 fluorescence intensity (a.u.) |
| AGAACTCCCTTTGCCTGGATCTGTTTGTTCCTCGCACCATCGGAGTCACCTAGTGCAG | 8560 fluorescence intensity (a.u.) |
| CGCGGGGTCGGGCCTTACTCCGCCGTCGATACTGGGAGAGCGGAGTCACCTAGTGCAG | 8760 fluorescence intensity (a.u.) |
| CGCTGGTTATTCCCATCTTCTCCCGTCGTCTGTACTGTATCGGAGTCACCTAGTGCAG | 9320 fluorescence intensity (a.u.) |
| CCATGTGCTCGTTTCAGCTTCTTCTACCTCCGTTTCACACCGGAGTCACCTAGTGCAG | 13500 fluorescence intensity (a.u.) |
| GTAGTATATTTTTTTGCTGCTGGTATGGATAATGCCTATGCGGAGTCACCTAGTGCAG | 9640 fluorescence intensity (a.u.) |

Copied from the listing for reference:

| Sequence | binding signal |
| --- | --- |
| TTTGTTGTGACGAAATGTCTTAATCACATGGATGGCGGGGCGGAGTCACCTAGTGCAG | 9660 fluorescence intensity (a.u.) |
| ACCATATGTCCATTTCCCTAACACGTCTCCTATTTCACTGCGGAGTCACCTAGTGCAG | 9030 fluorescence intensity (a.u.) |
| ATAAATTAAGTACCAGCCTAGCCATTTGTTTTGGTTGTTTCGGAGTCACCTAGTGCAG | 8230 fluorescence intensity (a.u.) |
